Laboratory results: patent US20170058032A1 (published 2017)
Substitutions are numbered along the chain they refer to. Numbers in names are those of the source. These are yes or no findings as the source states them, for the method shown. Some entries that bind do so weakly or less than the wild type.

Amino acid sequences for entries named in this document (tags omitted). A change or cut given only in a name is not applied to a line headed by its entry.
UniProt P40259: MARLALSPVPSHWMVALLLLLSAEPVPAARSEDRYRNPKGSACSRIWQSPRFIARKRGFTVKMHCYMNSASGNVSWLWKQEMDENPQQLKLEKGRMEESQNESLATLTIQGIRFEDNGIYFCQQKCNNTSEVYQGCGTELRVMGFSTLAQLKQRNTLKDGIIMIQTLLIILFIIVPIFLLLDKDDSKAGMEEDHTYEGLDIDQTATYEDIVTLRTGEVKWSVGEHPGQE

Target: extracellular domain of human CD79b (huCD79becd) (human) (UniProt P40259)
Test: phage selection on plate-bound antigen

B1: huMA79b graft variant, SEQ ID NO: 76 (Fab, name in Kabat numbering, V domains shown)
VH: EVQLVESGGGLVQPGGSLRLSCAASGYSFPSYWLQWVRQAPGKGLEWVGEILPGGGDTNYNEIFKGRFTISADTSKNTAYLQMNSLRAEDTAVYYCTRRVPVYFDYWGQGTLVTVSS
VL: DIQMTQSPSSLSASVGDRVTITCKASQSVDYDGDSFLNWYQQKPGKAPKLLIYAASNLESGVPSRFSGSGSGTDFTLTISSLQPEDFATYYCQQSNEDPLTFGQGTKVEIKR
Q: How did the binding turn out when B1 was run?
A: binds

B2: huMA79b graft variant, SEQ ID NO: 77 (Fab, name in Kabat numbering, V domains shown)
VH: B1 VH with S28P, P30T, S31R, L34I, Q35E
VL: B1 VL
Q: With B2 as the binder, how does the binding read?
A: binds

B3: huMA79b graft variant, SEQ ID NO: 78 (Fab, name in Kabat numbering, V domains shown)
VH: B1 VH with S28P, P30S, S31G, L34I, Q35E
VL: B1 VL
Q: How did the binding turn out when B3 was run?
A: binds

B4: huMA79b graft variant, SEQ ID NO: 79 (Fab, name in Kabat numbering, V domains shown)
VH: B1 VH with S28P, P30R, L34I, Q35S
VL: B1 VL
Q: How did the binding turn out when B4 was run?
A: binds

B5: huMA79b graft variant, SEQ ID NO: 80 (Fab, name in Kabat numbering, V domains shown)
VH: B1 VH with S28P, P30R, L34I, Q35N
VL: B1 VL
Q: B5 was tested. Which binding did it give?
A: binds

B6: huMA79b graft variant, SEQ ID NO: 81 (Fab, name in Kabat numbering, V domains shown)
VH: B1 VH with S28P, P30R, S31G, L34I, Q35E
VL: B1 VL
Q: B6 was tested. Which binding did it give?
A: binds

B7: huMA79b graft variant, SEQ ID NO: 82 (Fab, name in Kabat numbering, V domains shown)
VH: B1 VH with S28P, P30N, S31R, L34I, Q35E
VL: B1 VL
Q: For B7, which binding is on record?
A: binds

B8: huMA79b graft variant, SEQ ID NO: 83 (Fab, name in Kabat numbering, V domains shown)
VH: B1 VH with S28P, P30N, S31G, L34I, Q35N
VL: B1 VL
Q: How did the binding turn out when B8 was run?
A: binds

B9: huMA79b graft variant, SEQ ID NO: 84 (Fab, name in Kabat numbering, V domains shown)
VH: B1 VH with S28N, F29V, P30S, Q35S
VL: B1 VL
Q: How did the binding turn out when B9 was run?
A: binds

B10: huMA79b graft variant, SEQ ID NO: 85 (Fab, name in Kabat numbering, V domains shown)
VH: B1 VH with Y27F, S28P, P30T, L34I, Q35S
VL: B1 VL
Q: Which binding does the source give for B10 here?
A: binds

B11: huMA79b graft variant, SEQ ID NO: 86 (Fab, name in Kabat numbering, V domains shown)
VH: B1 VH with Y27F, S28P, P30N, S31R, L34I, Q35N
VL: B1 VL
Q: How did the binding turn out when B11 was run?
A: binds

B12: huMA79b graft variant, SEQ ID NO: 87 (V98I and F100L) (Fab, name in Kabat numbering, V domains shown)
VH: B1 VH with S28T, P30S, L34I, Q35E, V102I, F104L
VL: B1 VL
Q: B12 was tested. Which binding did it give?
A: binds

B13: huMA79b graft variant, SEQ ID NO: 89 (Fab, name in Kabat numbering, V domains shown)
VH: B1 VH with S28T, P30S, L34I, Q35E, Y103K, F104L
VL: B1 VL
Q: How did the binding turn out when B13 was run?
A: binds

B14: huMA79b graft variant, SEQ ID NO: 90 (F100L) (Fab, name in Kabat numbering, V domains shown)
VH: B1 VH with S28T, P30S, L34I, Q35E, F104L
VL: B1 VL
Q: How did the binding turn out when B14 was run?
A: binds

B15: huMA79b graft variant, SEQ ID NO: 91 (V98I) (Fab, name in Kabat numbering, V domains shown)
VH: B1 VH with S28T, P30S, L34I, Q35E, V102I
VL: B1 VL
Q: How did the binding turn out when B15 was run?
A: binds

B16: huMA79b graft variant, SEQ ID NO: 92 (Fab, name in Kabat numbering, V domains shown)
VH: B1 VH with S28T, P30S, L34I, Q35E, V102F, Y103C, F104L
VL: B1 VL
Q: Which binding does the source give for B16 here?
A: binds

B17: huMA79b graft variant, SEQ ID NO: 95 (Fab, name in Kabat numbering, V domains shown)
VH: B1 VH with S28T, P30S, L34I, Q35E, V102I, Y103K, F104L
VL: B1 VL
Q: For B17, which binding is on record?
A: binds

B18: huMA79b graft variant, SEQ ID NO: 96 (Fab, name in Kabat numbering, V domains shown)
VH: B1 VH with S28T, P30S, L34I, Q35E, V102I, Y103R
VL: B1 VL
Q: Which binding does the source give for B18 here?
A: binds
